The text below walks through data of PMC12199426.

Sequences of proteins named here, by UniProt entry; tags and fusion partners are left off.
UniProt O35286: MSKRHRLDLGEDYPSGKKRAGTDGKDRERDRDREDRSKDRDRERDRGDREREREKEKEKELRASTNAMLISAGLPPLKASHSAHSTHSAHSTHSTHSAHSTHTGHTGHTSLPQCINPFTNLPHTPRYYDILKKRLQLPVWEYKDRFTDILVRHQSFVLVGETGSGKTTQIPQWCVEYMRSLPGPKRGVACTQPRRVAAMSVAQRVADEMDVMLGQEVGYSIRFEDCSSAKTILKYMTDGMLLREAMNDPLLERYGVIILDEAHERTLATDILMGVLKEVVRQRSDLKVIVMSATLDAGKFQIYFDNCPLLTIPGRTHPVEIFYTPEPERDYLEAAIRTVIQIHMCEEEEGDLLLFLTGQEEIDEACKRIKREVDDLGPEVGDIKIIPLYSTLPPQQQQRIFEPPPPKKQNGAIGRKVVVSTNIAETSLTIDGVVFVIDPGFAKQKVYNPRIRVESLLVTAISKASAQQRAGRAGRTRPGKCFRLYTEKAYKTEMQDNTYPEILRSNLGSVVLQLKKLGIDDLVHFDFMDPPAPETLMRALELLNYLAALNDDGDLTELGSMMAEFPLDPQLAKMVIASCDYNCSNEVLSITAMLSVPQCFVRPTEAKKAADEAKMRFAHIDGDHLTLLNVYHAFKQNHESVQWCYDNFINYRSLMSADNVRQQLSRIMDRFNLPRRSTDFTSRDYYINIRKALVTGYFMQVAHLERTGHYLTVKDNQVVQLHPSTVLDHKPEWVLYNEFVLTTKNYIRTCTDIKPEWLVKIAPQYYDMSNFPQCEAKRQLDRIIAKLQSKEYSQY

For the experiment, the target named is T1, Breast cancer amplified sequence 2 (Bcas2) (mouse (endogenous in splenic B cells)) (UniProt Q9D287).
T1 sequence: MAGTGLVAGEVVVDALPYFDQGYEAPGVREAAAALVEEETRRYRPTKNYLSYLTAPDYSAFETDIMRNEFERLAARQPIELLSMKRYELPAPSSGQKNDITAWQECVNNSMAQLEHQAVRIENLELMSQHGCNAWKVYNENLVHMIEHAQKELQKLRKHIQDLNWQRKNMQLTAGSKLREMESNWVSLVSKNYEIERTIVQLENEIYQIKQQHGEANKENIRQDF
Description: affinity purification with mass spectrometry; Bcas2 immunoprecipitates from mouse splenic B cells (IP-MS, Q-Exactive; Mascot search of the UniProt mouse database).

Results are given in words; binding and its absence hold for the method and conditions named. Binding seen in cells or lysates may run through a third protein. A yes stands for co-enrichment or nearness to the bait. Other partners may have been found.

In the case of DHX15 (from UniProt O35286 1-795), the binding result is listed as “binds”.

B1: SRSF7 (protein, UniProt Q8BL97 1-267)
chain: MRSSARGRPLQAATAFFLSLFFFLRRFERGFWLWGGDSETKVYVGNLGTGAGKGELERAFSYYGPLRTVWIARNPPGFAFVEFEDPRDAEDAVRGLDGKVICGSRVRVELSTGMPRRSRFDRPPARRPFDPNDRCYECGEKGHYAYDCHRYSRRRRSRSRSRSHSRSRGRRYSRSRSRSRGRRSRSASPRRSRSVSLRRSRSASLRRSRSGSIIGSRYFQSRSRSRSRSRSISRPRSSRSKSRSPSPKRSRSPSGSPHRSASPERMD
For the molecule B1, the binding result is reported as “binds”.
